The text below walks through data of PubChem BioAssay AID206 (DTP/NCI, 2004).

This test concerns nude mice, HT29 intrarenal xenograft, tumor weight T/C. In words: NCI In Vivo Anticancer Drug Screen. Data for tumor model HT29;CX-1 Human Adenocarcinoma (MER+) (intrarenal inoculation) in NU/NU Swiss (nude) mice. The settings on record: T/C endpoint: mean tumor weight change, higher T/C = larger tumour. An outline of the steps: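 Compounds were given to mice carrying transplantable tumors; a vehicle-dosed group served as control. The endpoint measured in each group was compared as a T/C quotient.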

Setting [1] is: dose: 300.0 mg/kg/injection, schedule: Q04DX004 (sc), vehicle: saline with Tween-80.
The mark [2] stands for this setting: dose: 600.0 mg/kg/injection, schedule: Q04DX004 (sc), vehicle: saline with Tween-80, evaluated on day 15.

Structures are written as SMILES. The list is a part of this screen's results and no random one: it is rich in T/C values a quarter to a half above the control, in often repeated tests (any T/C) and in doses without a T/C. Further doses and runs are listed elsewhere. T/C gives the treated animals as a percentage of the vehicle group. Schedule codes are those of the source, read here as Q, the interval in days (D) or hours (H), X, the number of doses. Some T/C values are followed by the survivors on the day toxicity was checked, most often the fifth; without a count, all were alive then. Some values lie below zero, which means that the treated tumours became smaller. Some entries hold several experiments; the results are listed from low to high. Some entries give survivors of the animals treated and no T/C: the source files T/C as zero there, which appears to mark a toxic dose or a test without result, not a measured value. Survivors were counted at the toxicity check, usually on the fifth day, unless a day is given; later deaths do not show.

As for `N#Cc1cn(C2OC(CO)C(O)C2O)c2ncnc(N)c12` (configuration not stated), the survivor count was 0 of 2 on day 11 and 1 of 3 on day 11 (dose: 1.0 mg/kg/injection, schedule: Q01DX010 (sc), vehicle: saline); 0 of 3 on day 11 (dose: 2.0 mg/kg/injection, schedule: Q01DX010 (sc), vehicle: saline); 0 of 3 on day 11 (dose: 4.0 mg/kg/injection, schedule: Q01DX010 (sc), vehicle: saline).
For `CC(C)=CC(=O)OC1C2C(C)=CC(=O)C(O)C2(C)C2C3(O)OCC24C(CC(=O)OC14)C(C)C3O` (configuration not stated), the T/C (dose: 2.5 mg/kg/injection, schedule: Q04DX004 (sc), vehicle: saline with Tween-80, evaluated on day 15) is 134 % of control. Also, the survivor count is, setting by setting: (dose: 10.0 mg/kg/injection, schedule: Q04DX004 (sc), vehicle: distilled water + Tween-80) 0 of 3 on day 15 and 0 of 6 on day 15; (dose: 10.0 mg/kg/injection, schedule: Q04DX004 (sc), vehicle: saline with Tween-80) 0 of 3 on day 15.
For `BrCC[Se]c1ccccc1`, the T/C (dose: 200.0 mg/kg/injection, schedule: Q04DX004 (sc), vehicle: saline with Tween-80, evaluated on day 15) is 129 % of control [5 of 6 alive on day 15]. Moreover, the survivor count runs as follows: (dose: 200.0 mg/kg/injection, schedule: Q04DX004 (sc), vehicle: saline with Tween-80) 0 of 6 on day 15; (dose: 800.0 mg/kg/injection, schedule: Q04DX004 (sc), vehicle: saline with Tween-80) 0 of 6 on day 15; (dose: 1600.0 mg/kg/injection, schedule: Q04DX004 (sc), vehicle: saline with Tween-80) 0 of 6 on day 15.
As for `CC(C)=CCNc1ncnc2c1ncn2C1OC(CO)C(O)C1O` (configuration not stated), the T/C (dose: 200.0 mg/kg/injection, schedule: Q04DX004 (sc), vehicle: suspension in saline, evaluated on day 15) is 125 % of control. The survivor count reads like this: (dose: 800.0 mg/kg/injection, schedule: Q04DX004 (sc), vehicle: suspension in saline) 0 of 6 on day 15; (dose: 1600.0 mg/kg/injection, schedule: Q04DX004 (sc), vehicle: suspension in saline) 0 of 6 on day 15.
Turning to `COC(=O)C(F)C(Br)C(=O)OC` (configuration not stated), the survivor count reads like this: (dose: 37.5 mg/kg/injection, schedule: Q04DX004 (sc), vehicle: saline with Tween-80) 1 of 6 on day 15; (dose: 150.0 mg/kg/injection, schedule: Q04DX004 (sc), vehicle: saline with Tween-80) 0 of 6 on day 15; under setting [1], 0 of 6 on day 15.
With `O=C[C@@H](CO)O[C@H](C=O)n1cnc2c(=O)[nH]cnc21`, where the note is “dose: 1800.0 mg/kg/injection, schedule: Q04DX004 (sc), vehicle: saline”, the survivor count is listed as 0 of 6 on day 15.
As to `CN(C)CC(Cl)CCl` (configuration not stated), the survivor count (dose: 600.0 mg/kg/injection, schedule: Q04DX004 (sc), vehicle: saline) is on record as 0 of 6 on day 15.
Regarding `O=NNc1ccccn1`, the T/C (dose: 0.5 mg/kg/injection, schedule: Q01DX010 (sc), vehicle: saline, evaluated on day 11) is 131 % of control [2 of 2 alive on day 11]; the T/C (dose: 1.0 mg/kg/injection, schedule: Q01DX010 (sc), vehicle: saline, evaluated on day 11) is 132 % of control; the T/C (dose: 2.0 mg/kg/injection, schedule: Q01DX010 (sc), vehicle: saline, evaluated on day 11) was 125 % of control; the T/C (dose: 16.0 mg/kg/injection, schedule: Q01DX010 (sc), vehicle: saline, evaluated on day 11) was 146 % of control. Moreover, the survivor count is listed as 1 of 6 on day 11 (dose: 64.0 mg/kg/injection, schedule: Q01DX010 (sc), vehicle: saline) and 0 of 6 on day 11 (dose: 128.0 mg/kg/injection, schedule: Q01DX010 (sc), vehicle: saline).
For `CCC1=C2C(=O)c3ccccc3C2=C(C)S(=O)(=O)O1`, under setting [2], the T/C was 134 % of control.
In the case of `O=C1NCC(Br)C(=O)N1` (configuration not stated), the survivor count (dose: 1200.0 mg/kg/injection, schedule: Q04DX004 (sc), vehicle: saline with Tween-80) is on record as 0 of 6 on day 15.
As for `Cc1noc(N)c1N`, under “dose: 200.0 mg/kg/injection, schedule: Q04DX004 (sc), vehicle: water, evaluated on day 15”, the T/C is 146 % of control.
With `C[C@]12CCC(=O)C=C1CC[C@@H]1[C@@H]2C(=O)C[C@@]2(C)[C@H]1CC[C@]2(O)C(=O)CO`, for the setting “dose: 2400.0 mg/kg/injection, schedule: Q04DX004 (sc), vehicle: Klucel (hydroxypropylcellulose) (HPC)”, the survivor count was 0 of 6 on day 15.
As for `O=C1N[C@@H]([C@H]2CC[C@H](Cl)CN2)C(=O)N[C@H]1[C@H]1CC[C@H](Cl)CN1`, the T/C by setting is: (dose: 0.32 mg/kg/injection, schedule: Q01DX010 (sc), vehicle: water, evaluated on day 11) 42, 50 [2 of 2 alive on day 11], 88 [2 of 3 alive on day 11], 104 % of control; (dose: 0.63 mg/kg/injection, schedule: Q01DX010 (sc), vehicle: water, evaluated on day 11) -3 [2 of 3 alive on day 11], 17, 27 [5 of 6 alive on day 11], 78, 105 % of control; (dose: 1.25 mg/kg/injection, schedule: Q01DX010 (sc), vehicle: water, evaluated on day 11) 7 and 78 % of control [5 of 6 alive on day 11]. The survivor count is 0 of 3 on day 11 and 1 of 6 on day 11 (dose: 1.25 mg/kg/injection, schedule: Q01DX010 (sc), vehicle: water); 0 of 3 on day 11 (dose: 2.5 mg/kg/injection, schedule: Q01DX010 (sc), vehicle: water); 0 of 3 on day 11 (dose: 5.0 mg/kg/injection, schedule: Q01DX010 (sc), vehicle: water); 0 of 3 on day 11 (dose: 10.0 mg/kg/injection, schedule: Q01DX010 (sc), vehicle: water).
As for `CCCCCCCC(=O)OCC(=O)[C@]1(O)Cc2c(O)c3c(c(O)c2[C@@H](OC2CC(N)C(O)C(C)O2)C1)C(=O)c1c(OC)cccc1C3=O` (some centres not stated), the survivor count (dose: 16.0 mg/kg/injection, schedule: Q01DX010 (sc), vehicle: suspension in saline) was 0 of 3 on day 20 and the survivor count (dose: 40.0 mg/kg/injection, schedule: Q04DX004 (sc), vehicle: suspension in saline) was 0 of 3 on day 15.
Turning to `CC(C)NC(=O)OCc1c(COC(=O)NC(C)C)c(-c2ccc(Cl)c(Cl)c2)n2c1CCC2`, the survivor count (dose: 200.0 mg/kg/injection, schedule: Q01DX010 (sc), vehicle: distilled water + Tween-80) is reported as 3 of 5 on day 20 and the survivor count (dose: 800.0 mg/kg/injection, schedule: Q01DX010 (sc), vehicle: distilled water + Tween-80) is reported as 2 of 6 on day 20.
Regarding `OCC1OC(n2cnc3c(Cl)ncnc32)C(O)C1O` (configuration not stated), the survivor count (dose: 2400.0 mg/kg/injection, schedule: Q04DX004 (sc), vehicle: saline) is reported as 2 of 5 on day 15.
`CCCCCCCCCCCCCCCCCC(=O)OCC(=O)OCC(=O)[C@]1(O)Cc2c(O)c3c(c(O)c2[C@@H](OC2CC(N)C(O)C(C)O2)C1)C(=O)c1c(OC)cccc1C3=O` (some centres not stated): the survivor count is reported as 0 of 3 on day 20 (dose: 24.0 mg/kg/injection, schedule: Q01DX010 (sc), vehicle: water) and 0 of 3 on day 15 (dose: 60.0 mg/kg/injection, schedule: Q04DX004 (sc), vehicle: water).
Regarding `Clc1cc(Cl)c(C[N+]23CN4CN(CN(C4)C2)C3)cc1Cl`, the survivor count under setting [1] is recorded as 0 of 5 on day 15.
Take `CC(C)CCCCCCCCCCCCC(=O)NCC(=O)NC1C(C)OC(Nc2ncnc3nc[nH]c23)C(O)C1O` (configuration not stated): the survivor count is, setting by setting: (dose: 8.0 mg/kg/injection, schedule: Q01DX010 (sc), vehicle: distilled water + Tween-80) 1 of 3 on day 11; (dose: 16.0 mg/kg/injection, schedule: Q01DX010 (sc), vehicle: distilled water + Tween-80) 0 of 3 on day 11 and 1 of 3 on day 11; (dose: 16.0 mg/kg/injection, schedule: Q04DX004 (sc), vehicle: distilled water + Tween-80) 1 of 3 on day 15; (dose: 32.0 mg/kg/injection, schedule: Q01DX010 (sc), vehicle: distilled water + Tween-80) 0 of 3 on day 11; (dose: 32.0 mg/kg/injection, schedule: Q04DX004 (sc), vehicle: distilled water + Tween-80) 0 of 3 on day 15.
Regarding `O=Cc1ccc(O)c(O)c1`, under “dose: 2400.0 mg/kg/injection, schedule: Q04DX004 (sc), vehicle: saline with Tween-80”, the survivor count is 3 of 6 on day 15.
With `CCCCn1cnc2c(=S)nc[nH]c21`, the survivor count (dose: 1200.0 mg/kg/injection, schedule: Q04DX004 (sc), vehicle: suspension in saline) was 3 of 6 on day 15.
Turning to `COc1cccc(C2NC(=O)c3c(n[nH]c3N)S2)c1O` (configuration not stated), the T/C (dose: 300.0 mg/kg/injection, schedule: Q04DX004 (sc), vehicle: saline with Tween-80, evaluated on day 15) is 132 % of control and the T/C under setting [2] was 130 % of control.
